Test results as given in PubChem BioAssay AID2685 (National Center for Advancing Translational Sciences (NCATS), 2010).
The list shows a part of the results. Shown are side measurements of this screen, not its main read-out; they come without a call. Most of these compounds were active or inconclusive in the main read-out, so they are no random draw. Words in brackets tell the shape of the fitted curve; partial curves, single points and poor fits give uncertain potencies.

Test: qHTS Assay for Lipid Storage Modulators in Drosophila S3 Cells;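 as to cell number change: cells counted by Cell Tracker Red CMTPX staining in the red channel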
Conditions: BODIPY lipid droplet fluorescence, 18-24 h; for cell number change: measured here: cell count max response, cells fed with added oleic acid
Procedure, shortened: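 Drosophila S3 cells loaded with oleic acid (400 uM, as added) and compounds at several concentrations; lipid droplets imaged by 488-nm laser-scanning cytometry, 500–530 nm intensity and object ratio to cell channel. Percent activity normalized to 20 uM Triacsin C.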

[1] = measured here: cell number channel AC50, cells fed with added oleic acid
[2] = measured here: lipid fluorescence (Fed channel) AC50, cells fed with added oleic acid

CCOc1ccc2nc(N3CCC(C(=O)N4CCC5(CC4)OCCO5)CC3)sc2c1
AC50 [1]: 0.82 µM [rising, full curve, poor fit] | AC50 [2]: 0.731 µM [rising, full curve]

Cc1ccnc(-n2c(-c3ccco3)nc3ccccc3c2=O)c1
AC50 [2]: 0.13 µM [falling, full curve, poor fit]

O=[N+]([O-])c1ccc(NC2CCN(Cc3ccccc3)CC2)c2ccncc12
cell number change: 36.7% | AC50 [2]: 18.4 µM [rising, partial curve]

COc1cc(C)cc(CN2CC=C(c3ccccc3)CC2)c1O
cell number change: -13.9%

COc1ccc(CNCCc2c(C)[nH]c3ccc(OC(F)(F)F)cc23)c(OC)c1
AC50 [2]: 29.1 µM [falling, single point]

Cn1c(=O)cc(OCC(=O)N2CCN(C3CCCCC3)CC2)c2ccccc21
AC50 [2]: 2.59 µM [rising, single point]

O=C(NCCN1CCOCC1)c1ccc(Cl)nc1Cl
cell number change: 37.9% | AC50 [1]: 1.46 µM [rising, full curve]

Cc1cc(Br)ccc1N1C(=O)CC(=O)NC1=O
cell number change: 4.51%

CN1C[C@H](CO)C[C@@H]2c3cccc4[nH]cc(c34)C[C@H]21
cell number change: 34.7% | AC50 [1]: 4.11 µM [rising, full curve]

CCOc1cc2c(cc1OCC)-n1cccc1C(c1cccc([N+](=O)[O-])c1)NC2 (stereo not given)
cell number change: -18.4% | AC50 [2]: 29.1 µM [rising, single point]

CCOP(=O)(Cc1ccccc1)OCC
cell number change: -9.95% | AC50 [2]: 2.31 µM [rising, single point]

O=[N+]([O-])c1cc2c(cc1CNCCc1ccc3c(c1)OCO3)OCO2
cell number change: 7.74% | AC50 [2]: 5.8 µM [rising, partial curve]

CN1CCC(OC(=O)C2c3ccccc3Oc3ccccc32)CC1
cell number change: 0.897% | AC50 [2]: 23.1 µM [falling, single point]

CN(C)c1nc(N(C)C)nc(N(C#N)CCCl)n1
cell number change: -36.7% | AC50 [1]: 32.6 µM [falling, single point]

COC(=O)C1=C(c2ccc(F)cc2F)C[C@@H]2CC[C@H]1N2C(=O)N1CCCC1
cell number change: -13.2%

CCOC(=O)c1c(C)n(COCCO)c2ccc(O)cc12
cell number change: -12.7% | AC50 [2]: 5.8 µM [rising, partial curve, poor fit]

CCn1c(O)c(C(=O)CC2NCCc3ccccc32)c(=O)n(CC)c1=S (stereo not given)
cell number change: -0.203% | AC50 [2]: 0.366 µM [rising, partial curve]

Cc1cc(OC(=O)CCNC(=O)OC(C)(C)C)c2c3c(c(=O)oc2c1)CCC3
cell number change: -19.3% | AC50 [2]: 16.4 µM [falling, single point]

COc1cccc(N2CCN(Cc3cccc(Cl)c3)CC2)c1
cell number change: -8.16% | AC50 [2]: 0.00461 µM [rising, full curve, poor fit]

Cc1cc(C(=O)OCC(=O)Nc2ccc(F)cc2F)c(C)n1C1CC1
cell number change: -5.54%

O=C(O)CCCCC1SCC2NC(=O)NC21 (stereo not given)
AC50 [1]: 6.51 µM [falling, full curve]

CCOC(=O)C1C(=O)N(C)C2(C)CC1c1ccccc1O2 (stereo not given)
cell number change: 7.6% | AC50 [2]: 20.6 µM [falling, partial curve, poor fit]

CCOC(=O)C1(CCOc2ccccc2)CCN(Cc2cccc(O)c2)CC1
cell number change: -0.676% | AC50 [2]: 11.6 µM [falling, single point]

COc1ccc(C(=O)CC2(CC(=O)c3ccc(OC)cc3)C(=O)N(C)C(=O)N(C)C2=O)cc1
cell number change: 20.9% | AC50 [2]: 6.51 µM [falling, partial curve]

Cc1nn(Cc2ccc(Cl)cc2Cl)c(Cl)c1C(=O)Nc1ccc(OC(F)F)cc1
cell number change: -40.4% | AC50 [1]: 32.6 µM [falling, single point] | AC50 [2]: 0.116 µM [rising, full curve, poor fit]

COC(=O)c1ccc(N2C(=O)CC(N3CCC(n4c(=O)[nH]c5ccccc54)CC3)C2=O)cc1 (stereo not given)
cell number change: -19.7% | AC50 [2]: 0.517 µM [rising, single point]

C/C=C1/C[C@@H](C)[C@](O)(CO)C(=O)OCC2=CCN3CC[C@@H](OC1=O)[C@@H]23
cell number change: 36.6% | AC50 [2]: 29.1 µM [rising, single point]

COc1ccc(OCC(=O)N2CCCC(N3CCN(c4ccccc4C)CC3)C2)cc1 (stereo not given)
cell number change: 21.5% | AC50 [1]: 0.411 µM [rising, full curve] | AC50 [2]: 6.51 µM [rising, single point]

O=c1[nH]c(=O)n(-c2cccc(F)c2)c(O)c1/C=C1\C=Nc2ccccc21
cell number change: 18.1%

O=C(Nc1cccc(OC(=O)N2CCCCC2)c1)N1CCCCC1
cell number change: 15.5% | AC50 [2]: 13 µM [rising, partial curve, poor fit]

Cn1c(O)c(C(=O)c2ccccc2Cl)c(=O)n(C)c1=O
cell number change: -0.471% | AC50 [2]: 2.06 µM [rising, partial curve, poor fit]

COc1ccc(S(=O)(=O)NC(CC(=O)N2CCC3(CC2)OCCO3)C(C)C)cc1 (stereo not given)
cell number change: 7.3%

CCn1cc(C(=O)NCc2ccccc2)c2ccccc21
cell number change: 20.9% | AC50 [2]: 29.1 µM [rising, single point]

CC1=C(C(=O)N2CCC3(CC2)OCCO3)C2(CCC(C)CC2)OC1=O (stereo not given)
AC50 [1]: 1.46 µM [falling, partial curve]

Cc1cc(=O)[nH]c(SCc2nc3ccccc3c(=O)n2-c2ccccc2C)n1
cell number change: 10.8% | AC50 [1]: 6.51 µM [falling, single point] | AC50 [2]: 5.8 µM [falling, single point]

CCCCCn1c(=O)c(C(=O)NCc2ccncc2)c(O)c2ccccc21
cell number change: 18.6% | AC50 [1]: 0.146 µM [rising, full curve, poor fit] | AC50 [2]: 3.66 µM [rising, single point]

CCCOP(=O)(O)c1c([N+](=O)[O-])cc(C(F)(F)F)cc1[N+](=O)[O-] (tested in a mixture with another compound)
cell number change: 6.5% | AC50 [1]: 4.11 µM [falling, partial curve] | AC50 [2]: 7.31 µM [falling, partial curve]

CC1CCCCN1CC(O)c1c[nH]c2ccccc12 (stereo not given)
cell number change: 12.6% | AC50 [2]: 0.0517 µM [rising, full curve, poor fit]

Cc1cccc(OC(=O)N2CCOCC2)c1
cell number change: 34.1% | AC50 [1]: 7.31 µM [rising, partial curve, poor fit]

Cc1cc(/C=C2/C(=O)NC(=O)N(c3ccc(Br)cc3)C2=O)c(C)n1C
cell number change: 17.6%

c1ccc(SSc2ccccc2)cc1
AC50 [1]: 16.4 µM [falling, single point]

Clc1ccc(-c2nc3ccc(Cl)cn3c2CN2CCCCC2)cc1
cell number change: -30.8% | AC50 [2]: 32.6 µM [falling, single point]

CCN(CC)CCN=Cc1c(O)n(C2CCCCCC2)c(=O)[nH]c1=O
AC50 [2]: 4.11 µM [falling, partial curve]

Cc1cccc(N2CCN(Cc3ccc4c(c3)OCO4)CC2)c1C
cell number change: -17% | AC50 [2]: 29.1 µM [rising, single point]

C[C@H]1O[C@@H](O[C@H]2[C@@H](O)C[C@H](O[C@H]3[C@@H](O)C[C@H](O[C@H]4CC[C@@]5(C)[C@H](CC[C@@H]6[C@@H]5CC[C@]5(C)[C@@H](C7=CC(=O)OC7)CC[C@]65O)C4)O[C@@H]3C)O[C@@H]2C)C[C@H](O)[C@@H]1O
cell number change: 7.85% | AC50 [2]: 6.51 µM [falling, partial curve, poor fit]

O=P1(NCc2ccco2)COc2ccccc2OC1
cell number change: -3.16% | AC50 [2]: 6.51 µM [falling, single point]

Cc1cc(NC(=O)COC(=O)c2c(C)nn(Cc3ccccc3Cl)c2Cl)no1
cell number change: 4.5% | AC50 [1]: 0.082 µM [rising, full curve, poor fit]

Cc1ccc(OCC(=O)N2CCN(Cc3cccnc3)CC2)cc1
cell number change: 18.1% | AC50 [2]: 18.4 µM [rising, partial curve, poor fit]

COC(=O)C1=C(c2c(C)noc2C)C[C@@H]2CC[C@H]1N2C(=O)NCCNC(C)=O
cell number change: -23.3%

COc1ccccc1N1CCN(Cc2ccc(SC)cc2)CC1
cell number change: -8.5%

CCCCOc1nc2ccccc2c(=O)n1-c1ccccc1
cell number change: 47.4% | AC50 [1]: 14.6 µM [rising, partial curve, poor fit]

O=P(O)(O)C12CC3CC(CC(C3)C1)C2
cell number change: -62.6% | AC50 [1]: 6.51 µM [falling, full curve] | AC50 [2]: 5.17 µM [falling, full curve]

COC(=O)C1=C(c2ccc(OC)c(OC)c2)C[C@@H]2CC[C@H]1N2C(=O)NCc1ccc(F)cc1
cell number change: -10.2% | AC50 [2]: 6.51 µM [rising, single point]

CC(C)Cc1nnc(NC(=O)CCC(=O)N2CCN(CCOC(c3ccccc3)c3ccccc3)CC2)s1
cell number change: -10.9% | AC50 [2]: 32.6 µM [falling, single point]

CCN(CC)c1ccc(N=Cc2c(O)n(-c3ccc(OC)cc3)c(=O)[nH]c2=O)cc1
cell number change: 37.2% | AC50 [1]: 2.06 µM [rising, partial curve] | AC50 [2]: 20.6 µM [rising, single point]

O=C(CN1CC(c2ccccc2)CC1=O)Nc1cccc(F)c1 (stereo not given)
cell number change: 3.19% | AC50 [2]: 5.8 µM [rising, partial curve]

COCCCNC(=O)Cn1cc(/C=C2\C(=O)NC(=O)N(c3ccccc3F)C2=O)c2ccccc21
cell number change: -8.33%

COc1ccc(C(=O)c2nc3ccccc3n2C(C)C)cc1
cell number change: 22.5% | AC50 [2]: 29.1 µM [rising, single point]

Clc1cccc(Cl)c1Cl
cell number change: 16.6% | AC50 [2]: 11.6 µM [rising, single point]

COc1ccc(-c2cc(C(=O)N3CCC4(CC3)OCCO4)c3ccccc3n2)cc1
cell number change: 13.2% | AC50 [1]: 0.92 µM [falling, partial curve] | AC50 [2]: 6.51 µM [falling, single point]

COc1cc2c(cc1OC)[C@@H]1C(=O)c3ccc4c(c3O[C@@H]1CO2)C[C@H](C(C)C)O4
cell number change: -42.5% | AC50 [1]: 0.103 µM [falling, full curve] | AC50 [2]: 0.082 µM [falling, full curve]

CN(C)c1ccc(/C=C/[N+](=O)[O-])cc1
cell number change: -47.4% | AC50 [1]: 18.4 µM [falling, partial curve] | AC50 [2]: 20.6 µM [falling, partial curve]

CCN(CC)c1ccccc1
cell number change: 7.05%

O=c1c2ccccc2nc(-c2ccco2)n1-c1ccc(Br)cn1
cell number change: 6.65% | AC50 [2]: 29.1 µM [rising, single point]
